Results published in publication PMC9083542, “Small Molecule Inhibitor Targeting CDT1/Geminin Protein Complex Promotes DNA Damage and Cell Death in Cancer Cells” (Frontiers in Pharmacology, 2022).
These are yes or no findings as the source states them, for the method shown. Some binding calls cover weakened binding; strength is not graded here. Sequences can lack the tags named with a protein.

What was measured:
[1] = target: T1, His-tagged human CDT1^158-396 F173A (miniCDT1F173A) (human) (UniProt Q9H211); assay: AlphaScreen or HTRF; competition: Flag-ΔDBGeminin/His6-miniCDT1 mutant complex at 50 nM, streptavidin Donor beads with biotinylated anti-Flag antibody, nickel-chelate Acceptor beads; increasing untagged ΔDBGeminin; 25 mM Hepes pH 7.4, 100 mM NaCl, 0.1% BSA; 1.5 h at RT; both purified
T1 sequence: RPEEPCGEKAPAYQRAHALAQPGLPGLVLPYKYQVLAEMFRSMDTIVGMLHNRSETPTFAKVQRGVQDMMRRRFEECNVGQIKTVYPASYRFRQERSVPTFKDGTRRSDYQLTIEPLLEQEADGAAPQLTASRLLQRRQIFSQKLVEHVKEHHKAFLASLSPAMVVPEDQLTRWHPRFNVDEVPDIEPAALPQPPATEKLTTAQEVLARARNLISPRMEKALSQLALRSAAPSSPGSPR

[2] = target: T2, His-tagged human CDT1^158-396 Y170A (miniCDT1Y170A) (human) (UniProt Q9H211); assay: as above
T2 sequence: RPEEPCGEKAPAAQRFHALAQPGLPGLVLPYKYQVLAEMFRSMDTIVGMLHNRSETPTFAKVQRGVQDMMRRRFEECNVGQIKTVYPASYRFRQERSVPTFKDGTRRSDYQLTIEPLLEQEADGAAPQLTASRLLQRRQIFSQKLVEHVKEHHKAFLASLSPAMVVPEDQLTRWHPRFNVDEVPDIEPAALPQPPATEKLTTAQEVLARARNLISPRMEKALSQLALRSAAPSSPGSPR

[3] = target: T3, His-tagged human CDT1^158-396 L176A (miniCDT1L176A) (human) (UniProt Q9H211); assay: as above
T3 sequence: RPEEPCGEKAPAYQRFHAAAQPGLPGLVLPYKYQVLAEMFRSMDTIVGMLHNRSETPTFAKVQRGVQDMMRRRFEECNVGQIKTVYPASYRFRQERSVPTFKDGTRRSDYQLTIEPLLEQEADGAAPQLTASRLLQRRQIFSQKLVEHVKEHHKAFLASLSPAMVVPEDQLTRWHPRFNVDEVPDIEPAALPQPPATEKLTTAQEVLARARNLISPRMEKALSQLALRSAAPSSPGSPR

[4] = target: T1, His-tagged human CDT1^158-396 F173A (miniCDT1F173A) (human); assay: co-expression and co-purification (IMAC, SEC); His-tagged miniCDT1 mutants co-expressed with ΔDBGeminin in E. coli Rosetta 2 (DE3); Ni-NTA column, then Superdex 200; 25 mM Tris-HCl pH 7.5, 200 mM NaCl
[5] = target: T2, His-tagged human CDT1^158-396 Y170A (miniCDT1Y170A) (human); assay: as above
[6] = target: T3, His-tagged human CDT1^158-396 L176A (miniCDT1L176A) (human); assay: as above
[7] = target: T4, His-tagged human CDT1^158-396 (miniCDT1), wild type (human) (UniProt Q9H211); assay: AlphaScreen or HTRF; dose response of compound AF615 (serial dilution from 200 μM) on the Flag-ΔDBGeminin/His6-miniCDT1 wild type complex; nickel-chelated Acceptor beads and a-Flag Donor beads; both purified
T4 sequence: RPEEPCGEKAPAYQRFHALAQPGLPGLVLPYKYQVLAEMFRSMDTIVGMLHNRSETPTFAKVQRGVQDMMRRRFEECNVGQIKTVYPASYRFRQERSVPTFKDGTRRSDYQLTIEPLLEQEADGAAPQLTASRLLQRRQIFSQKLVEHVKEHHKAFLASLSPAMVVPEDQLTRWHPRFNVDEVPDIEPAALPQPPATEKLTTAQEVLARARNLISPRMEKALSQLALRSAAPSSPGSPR

Measured: binding

B1: Flag-tagged Geminin^28-209 (ΔDBGeminin) (domain or fragment, human, UniProt O75496 28-209, looked up)
chain: MIQPSASGSLVGRENELSAGLSKRKHRNDHLTSTTSSPGVIVPESSENKNLGGVTQESFDLMIKENPSSQYWKEVAEKRRKALYEALKENEKLHKEIEQKDNEIARLKKENKELAEVAEHVQYMAELIERLNGEPLDNFESLDNQEFDSEEETVEDSLVEDSEIGTCAEGTVSSSTDAKPCI
notes: Geminin, human, residues 28-209 (lacks the N-terminal stretch with the destruction box), cloned into pET22b; also called Flag-tagged ΔDBGeminin; source: E. coli Rosetta 2 (DE3), co-expressed with miniCDT1 variants, co-purified (Ni-NTA IMAC, SEC)
binds: [1] | [2] | [3] | [4] | [5] | [6] | [7]
